Results from PMC8494922.
These are yes or no findings as the source states them, for the method shown. Binding seen in cells or lysates may run through a third protein. Binding can be weak; no strength is given.

The chains behind the UniProt entries cited, without tags or fusion partners. Where a name states a change or a piece, a line headed by the entry shows the natural chain unless it says otherwise.
UniProt Q8R4B8: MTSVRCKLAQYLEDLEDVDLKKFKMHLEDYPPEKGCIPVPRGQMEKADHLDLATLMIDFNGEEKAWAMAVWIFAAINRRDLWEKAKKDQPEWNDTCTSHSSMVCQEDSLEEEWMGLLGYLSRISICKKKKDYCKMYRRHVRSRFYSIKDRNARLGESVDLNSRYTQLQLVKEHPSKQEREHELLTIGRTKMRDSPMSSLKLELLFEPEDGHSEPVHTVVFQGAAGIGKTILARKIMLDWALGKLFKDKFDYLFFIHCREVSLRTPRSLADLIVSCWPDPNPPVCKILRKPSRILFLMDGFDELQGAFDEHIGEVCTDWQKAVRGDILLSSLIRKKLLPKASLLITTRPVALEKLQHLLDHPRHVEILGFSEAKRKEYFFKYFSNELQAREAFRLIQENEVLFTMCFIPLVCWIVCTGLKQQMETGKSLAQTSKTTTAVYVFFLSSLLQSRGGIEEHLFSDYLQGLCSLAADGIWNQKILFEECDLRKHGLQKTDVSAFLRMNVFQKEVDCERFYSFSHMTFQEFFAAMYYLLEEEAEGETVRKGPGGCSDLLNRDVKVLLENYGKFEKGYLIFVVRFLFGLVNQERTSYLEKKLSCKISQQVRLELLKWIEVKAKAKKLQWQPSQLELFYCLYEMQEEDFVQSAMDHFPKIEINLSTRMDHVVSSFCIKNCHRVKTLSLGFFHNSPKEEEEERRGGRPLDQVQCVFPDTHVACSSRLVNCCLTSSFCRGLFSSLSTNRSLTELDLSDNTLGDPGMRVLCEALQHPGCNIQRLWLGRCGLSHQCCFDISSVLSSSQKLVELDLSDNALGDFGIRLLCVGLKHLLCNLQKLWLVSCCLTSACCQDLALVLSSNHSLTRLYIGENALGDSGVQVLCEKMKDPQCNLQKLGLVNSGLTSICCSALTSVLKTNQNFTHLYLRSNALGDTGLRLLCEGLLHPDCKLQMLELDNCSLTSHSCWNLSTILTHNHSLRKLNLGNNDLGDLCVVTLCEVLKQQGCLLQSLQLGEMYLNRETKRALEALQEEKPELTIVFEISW

The substances below were run against T1, VSV-SGT1 (UniProt Q9Y2Z0) (assay: co-IP; anti-VSV (P5D4) IP from 293T transfected with VSV-SGT1 and pcDNA3-NLRP3 mutants, 24 h; 1% NP-40 lysis buffer).
T1 sequence: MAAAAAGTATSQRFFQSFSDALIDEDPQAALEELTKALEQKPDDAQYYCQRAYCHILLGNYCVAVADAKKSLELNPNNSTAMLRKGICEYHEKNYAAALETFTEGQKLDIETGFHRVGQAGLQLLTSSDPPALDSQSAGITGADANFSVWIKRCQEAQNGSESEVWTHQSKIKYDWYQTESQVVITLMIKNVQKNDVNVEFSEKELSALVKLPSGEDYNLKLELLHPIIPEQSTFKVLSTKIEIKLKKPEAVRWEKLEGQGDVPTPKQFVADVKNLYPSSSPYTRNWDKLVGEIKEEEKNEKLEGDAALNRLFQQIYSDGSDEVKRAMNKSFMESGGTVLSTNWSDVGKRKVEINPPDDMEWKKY
With “NLRP3 S803A (pcDNA3-NLRP3, ectopically expressed in 293T) (from UniProt Q8R4B8)” the binding was “binds”.
In the case of “NLRP3 S803D (pcDNA3-NLRP3, ectopically expressed in 293T) (from UniProt Q8R4B8)”, the binding is reported as “binds”.
In the case of “NLRP3 S803E (pcDNA3-NLRP3, ectopically expressed in 293T) (from UniProt Q8R4B8)”, the binding is reported as “binds”.
